This experiment deals with CD2F1 mice, L1210 leukemia ip, survival T/C. As to the kind of experiment: NCI In Vivo Anticancer Drug Screen. Data for tumor model L1210 Leukemia (intraperitoneal) in CD2F1 (CDF1) mice. The settings on record: higher T/C = longer survival. A digest of the protocol: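 Antitumor effect is scored in animals hosting a serially transplanted tumor. Values compare compound-dosed animals against vehicle-only controls as a simple quotient.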

Where [1] appears, read: T/C endpoint: mean survival time, dose: 100.0 mg/kg/injection, schedule: Q01DX009 (ip), vehicle: suspension in saline.
Setting [2] is: T/C endpoint: median survival time, dose: 100.0 mg/kg/injection, schedule: Q01DX001 (ip), vehicle: saline.

The list does not hold the whole screen: it gathers tests that were run many times, whatever their T/C, doses with no T/C, and many T/C values between a quarter and a half above the control. Other doses and runs of a compound stand elsewhere. T/C: endpoint of the treated group in % of that of the vehicle group. Some entries give survivors of the animals treated and no T/C: the source holds a T/C of zero for them, seemingly a mark for toxic or unscored doses. Some doses without a T/C left all or most animals alive at the check, yet need not have been tolerated: survival well below the control is almost never listed, so the zero probably covers shortened survival too. Counts of survivors are from the toxicity check (mostly the fifth day) where no day follows; animals may have died later. Schedules are NCI's codes, read here as Q, the interval in days (D) or hours (H), X, the number of doses. Some entries were tested several times; the results are listed from low to high. Where survival is the endpoint, the PubChem record calls one and a half times the control and up active, and a quarter to a half above the control has no call in these data; cut-offs in other NCI protocols can differ. Some T/C values are followed by the survivors on the day toxicity was checked, most often the fifth; where none is given, no animal had died by that day.

Take `O=c1n(CC2CO2)c(=O)n(CC2CO2)c(=O)n1CC1CO1` (configuration not stated): the T/C is 125 % of control (T/C endpoint: mean survival time, dose: 5.0 mg/kg/injection, schedule: Q01DX009 (ip), vehicle: saline); 128 and 139 % of control (T/C endpoint: mean survival time, dose: 6.25 mg/kg/injection, schedule: Q01DX009 (ip), vehicle: saline with Tween-80); 127 % of control (T/C endpoint: mean survival time, dose: 6.25 mg/kg/injection, schedule: Q01DX009 (ip), vehicle: saline); 134 % of control (T/C endpoint: mean survival time, dose: 10.0 mg/kg/injection, schedule: Q01DX009 (ip), vehicle: saline); 128, 130, 143 % of control (T/C endpoint: mean survival time, dose: 12.5 mg/kg/injection, schedule: Q01DX009 (ip), vehicle: saline, evaluated on day 30); 148 % of control (T/C endpoint: mean survival time, dose: 12.5 mg/kg/injection, schedule: Q01DX009 (ip), vehicle: saline, evaluated on day 60). Also, the T/C is 127 and 128 % of control (T/C endpoint: mean survival time, dose: 12.5 mg/kg/injection, schedule: Q01DX009 (ip), vehicle: suspension in saline); 130 % of control (T/C endpoint: mean survival time, dose: 12.5 mg/kg/injection, schedule: Q04DX003 (ip), vehicle: saline); 138, 140, 143 % of control (T/C endpoint: mean survival time, dose: 25.0 mg/kg/injection, schedule: Q01DX009 (ip), vehicle: saline); 140 % of control (T/C endpoint: mean survival time, dose: 25.0 mg/kg/injection, schedule: Q04DX005 (ip), vehicle: saline); 110, 118, 138, 297 % of control (T/C endpoint: mean survival time, dose: 50.0 mg/kg/injection, schedule: Q01DX009 (ip), vehicle: saline, evaluated on day 30); 101 % of control (T/C endpoint: mean survival time, dose: 50.0 mg/kg/injection, schedule: Q01DX009 (ip), vehicle: saline, evaluated on day 60). The T/C reads like this: (T/C endpoint: mean survival time, dose: 70.0 mg/kg/injection, schedule: Q01DX001 (ip), vehicle: saline) 146 % of control; under setting [1], 146 % of control; (T/C endpoint: mean survival time, dose: 100.0 mg/kg/injection, schedule: Q04DX005 (ip), vehicle: saline) 146 % of control; (T/C endpoint: mean survival time, dose: 150.0 mg/kg/injection, schedule: Q01DX009 (ip), vehicle: saline) 147 and 148 % of control; (T/C endpoint: median survival time, dose: 5.0 mg/kg/injection, schedule: Q01DX009 (ip), vehicle: saline) 127 % of control; (T/C endpoint: median survival time, dose: 10.0 mg/kg/injection, schedule: Q01DX009 (ip), vehicle: saline) 141 % of control. The T/C is 140 % of control (T/C endpoint: median survival time, dose: 25.0 mg/kg/injection, schedule: Q01DX001 (ip), vehicle: saline); 134 % of control (T/C endpoint: median survival time, dose: 25.0 mg/kg/injection, schedule: Q01DX005 (iv), vehicle: saline); 128 % of control (T/C endpoint: median survival time, dose: 35.0 mg/kg/injection, schedule: Q03HX024 (ip), vehicle: saline); 133 % of control (T/C endpoint: median survival time, dose: 50.0 mg/kg/injection, schedule: Q01DX001 (iv), vehicle: saline); 140 % of control (T/C endpoint: median survival time, dose: 50.0 mg/kg/injection, schedule: Q01DX009 (oral), vehicle: saline); 135 % of control (T/C endpoint: median survival time, dose: 70.0 mg/kg/injection, schedule: Q01DX009 (ip), vehicle: saline). Besides, the T/C by setting is: under setting [2], 140 % of control; (T/C endpoint: median survival time, dose: 100.0 mg/kg/injection, schedule: Q04DX003 (oral), vehicle: saline) 132 % of control; (T/C endpoint: median survival time, dose: 100.0 mg/kg/injection, schedule: Q08DX002 (oral), vehicle: saline) 128 % of control; (T/C endpoint: median survival time, dose: 150.0 mg/kg/injection, schedule: Q01DX001 (ip), vehicle: saline) 140 % of control; (T/C endpoint: median survival time, dose: 150.0 mg/kg/injection, schedule: Q01DX009 (oral), vehicle: saline) 139 % of control; (T/C endpoint: median survival time, dose: 150.0 mg/kg/injection, schedule: Q08DX002 (ip), vehicle: saline) 127 % of control. Moreover, the T/C reads like this: (T/C endpoint: median survival time, dose: 200.0 mg/kg/injection, schedule: Q01DX001 (oral), vehicle: saline) 130 % of control; (T/C endpoint: median survival time, dose: 200.0 mg/kg/injection, schedule: Q01DX005 (oral), vehicle: saline) 135 % of control; (T/C endpoint: median survival time, dose: 250.0 mg/kg/injection, schedule: Q01DX001 (ip), vehicle: saline) 139 % of control; (T/C endpoint: median survival time, dose: 250.0 mg/kg/injection, schedule: Q01DX005 (oral), vehicle: saline) 144 % of control [9 of 10 alive]; (T/C endpoint: median survival time, dose: 300.0 mg/kg/injection, schedule: Q01DX001 (oral), vehicle: saline) 148 % of control; (T/C endpoint: median survival time, dose: 300.0 mg/kg/injection, schedule: Q01DX005 (oral), vehicle: saline) 139 % of control. In addition, the T/C runs as follows: (T/C endpoint: median survival time, dose: 400.0 mg/kg/injection, schedule: Q08DX002 (ip), vehicle: saline) 145 % of control; (T/C endpoint: median survival time, dose: 450.0 mg/kg/injection, schedule: Q01DX001 (oral), vehicle: saline) 133 % of control; (T/C endpoint: median survival time, dose: 500.0 mg/kg/injection, schedule: Q01DX001 (oral), vehicle: saline) 139 % of control. Besides, the survivor count was 6 of 6 (T/C endpoint: mean survival time, dose: 75.0 mg/kg/injection, schedule: Q01DX009 (ip), vehicle: saline); 6 of 6 (T/C endpoint: mean survival time, dose: 100.0 mg/kg/injection, schedule: Q01DX009 (ip), vehicle: saline with Tween-80); 4 of 6 under setting [1]; 0 of 6 and 3 of 6 (T/C endpoint: mean survival time, dose: 200.0 mg/kg/injection, schedule: Q01DX009 (ip), vehicle: saline with Tween-80); 0 of 6 and 4 of 6 (T/C endpoint: mean survival time, dose: 200.0 mg/kg/injection, schedule: Q01DX009 (ip), vehicle: suspension in saline); 3 of 6 (T/C endpoint: mean survival time, dose: 400.0 mg/kg/injection, schedule: Q01DX009 (ip), vehicle: saline). For the same compound, the survivor count runs as follows: (T/C endpoint: median survival time, dose: 30.0 mg/kg/injection, schedule: Q03HX008 (ip), vehicle: saline) 7 of 10; (T/C endpoint: median survival time, dose: 30.0 mg/kg/injection, schedule: Q03HX016 (ip), vehicle: saline) 7 of 10; (T/C endpoint: median survival time, dose: 30.0 mg/kg/injection, schedule: Q03HX024 (ip), vehicle: saline) 8 of 10; (T/C endpoint: median survival time, dose: 40.0 mg/kg/injection, schedule: Q03HX008 (ip), vehicle: saline) 2 of 10; (T/C endpoint: median survival time, dose: 40.0 mg/kg/injection, schedule: Q03HX016 (ip), vehicle: saline) 5 of 10; (T/C endpoint: median survival time, dose: 50.0 mg/kg/injection, schedule: Q01DX005 (ip), vehicle: saline) 8 of 8. Further, the survivor count was 8 of 8 (T/C endpoint: median survival time, dose: 50.0 mg/kg/injection, schedule: Q01DX005 (iv), vehicle: saline); 4 of 10 under setting [2]; 2 of 8 (T/C endpoint: median survival time, dose: 100.0 mg/kg/injection, schedule: Q01DX005 (ip), vehicle: saline); 4 of 8 (T/C endpoint: median survival time, dose: 100.0 mg/kg/injection, schedule: Q01DX005 (iv), vehicle: saline); 2 of 10 (T/C endpoint: median survival time, dose: 200.0 mg/kg/injection, schedule: Q01DX001 (ip), vehicle: saline); 2 of 10 (T/C endpoint: median survival time, dose: 200.0 mg/kg/injection, schedule: Q04DX003 (ip), vehicle: saline). The survivor count runs as follows: (T/C endpoint: median survival time, dose: 200.0 mg/kg/injection, schedule: Q08DX002 (ip), vehicle: saline) 1 of 10; (T/C endpoint: median survival time, dose: 300.0 mg/kg/injection, schedule: Q01DX001 (ip), vehicle: saline) 0 of 10; (T/C endpoint: median survival time, dose: 300.0 mg/kg/injection, schedule: Q08DX002 (ip), vehicle: saline) 0 of 10.
Regarding `O=C1C(O)=C(c2ccccc2)C(=O)C(O)=C1c1ccccc1`, the survivor count (T/C endpoint: mean survival time, dose: 100.0 mg/kg/injection, schedule: Q01DX009 (ip), vehicle: saline) is 3 of 10.
`COC1=CCC2=C(C1)CC(C)O2` (configuration not stated): the survivor count (T/C endpoint: mean survival time, dose: 400.0 mg/kg/injection, schedule: Q01DX009 (ip), vehicle: acetone) is listed as 1 of 6.
As to `CC(C)=CN(C)C` (tested in a mixture with another compound), the survivor count (T/C endpoint: mean survival time, dose: 100.0 mg/kg/injection, schedule: Q01DX001 (ip), vehicle: saline) is 2 of 6; the survivor count (T/C endpoint: mean survival time, dose: 200.0 mg/kg/injection, schedule: Q01DX001 (ip), vehicle: saline) is given as 0 of 6; the survivor count (T/C endpoint: mean survival time, dose: 400.0 mg/kg/injection, schedule: Q01DX001 (ip), vehicle: saline) is 0 of 6.
Turning to `O=C(CCl)c1cccnc1C(=O)O`, the survivor count is, setting by setting: (T/C endpoint: mean survival time, dose: 200.0 mg/kg/injection, schedule: Q04DX003 (ip), vehicle: saline with Tween-80) 1 of 6; (T/C endpoint: mean survival time, dose: 400.0 mg/kg/injection, schedule: Q04DX003 (ip), vehicle: saline with Tween-80) 0 of 6.

Source of the values: PubChem BioAssay AID256 (DTP/NCI, 2004).
